PubChem BioAssay AID493014 (National Center for Advancing Translational Sciences (NCATS), 2011)
The other results are listed elsewhere or left out. These are further read-outs of the screen, such as a control signal, another cell line or another target. No call is given for them. Most of these compounds were active or inconclusive in the main read-out, so they are no random draw. Words in brackets tell the shape of the fitted curve; partial curves, single points and poor fits give uncertain potencies.

Assay: qHTS Assay to Find Inhibitors of Chronic Active B-Cell Receptor Signaling
Conditions: ABC-DLBCL IkBa-CBG/CBR reporter, luminescence ratio (green luciferase fused to IkBa over red control in TMD8 lymphoma cells), 4 h
In short: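 Compounds up to 46 uM were incubated four hours with TMD8 cells whose green CBG68 luciferase is fused to IkappaBalpha; red CBR luminescence normalised the signal, and concentration-effect curves were fitted to fusion, red and ratio data.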

[1] = measured here: CBR red luminescence, cell number
[2] = measured here: IkBa-CBG green luminescence

SMILES	AC50 [1]	AC50 [2]
COc1cc2nc(C3CCC3)nc(N3CCN(c4ccccn4)CC3)c2cc1OC	23.1 µM [falling, single point]	
CCCN(CCC)c1ncnc2nc[nH]c12	1.64 µM [rising, partial curve, poor fit]	
COc1ccc(OC)c(C2CC(c3c(-c4ccccc4)c4cc(Cl)ccc4[nH]c3=O)=NN2S(C)(=O)=O)c1 (stereo not given)	5.62 µM [falling, single point]	
Cc1ccc(C(=O)c2cnc3cc4c(cc3c2S(=O)(=O)c2ccccc2)OCCO4)cc1	1.84 µM [falling, full curve]	
C/C(=N\NC(=O)c1ccn[nH]1)c1cn(C)nc1C	25.9 µM [falling, single point]	
CN(C)S(=O)(=O)c1cc(NC(=O)COC(=O)/C=C/c2ccco2)ccc1Cl	35.5 µM [rising, single point]	
Cc1cc(NC(=O)c2ccc(S(=O)(=O)N3CCCC3)cc2)nc2c1c(=O)oc1ccccc12	0.231 µM [falling, full curve]	3.26 µM [rising, full curve]
CC(C)CSc1ncnc2c1oc1nc3c(cc12)COC(C)(C)C3	18.4 µM [rising, single point]	
CC(=O)c1cccc(NC(=O)Nc2ccc3c(c2)N(C)C(=O)CS3)c1	29.1 µM [rising, single point]	
CCCC(=O)Nc1nnc(Sc2ccc(N(C)C)cc2)s1	5.17 µM [falling, single point]	
CCCC(C(=O)NCc1ccco1)N(C(=O)CNS(=O)(=O)c1ccccc1)c1ccc(OC)cc1 (stereo not given)	12.6 µM [falling, partial curve, poor fit]	
CSc1ccccc1NC(=O)C1CC(c2ccccc2O)=NO1 (stereo not given)	1.3 µM [falling, full curve, poor fit]	
CC(=O)Nc1ccc(-c2cn3ccsc3n2)cc1	16.4 µM [falling, partial curve, poor fit]	
C=CCNCCCOc1ccc(Cl)cc1C(C)(C)C	35.5 µM [falling, single point]	
COc1ccccc1NS(=O)(=O)c1ccc2[nH]c(=S)oc2c1	20.6 µM [rising, partial curve]	
CC[N+]1(CC)CC2=Cc3c(ccc4ccccc34)CC2C1 (stereo not given)	2.31 µM [falling, partial curve, poor fit]	
CCCOc1ccc2oc(=O)c3c(c2c1)CCCN3C(=O)CN1CCc2ccccc2C1	35.5 µM [falling, single point]	
C/C(=N/OCC(=O)Nc1ccccc1)c1cccs1	10 µM [falling, partial curve]	
COc1ccc(-c2sc3cc(OC)c(OC)cc3c2C#CCO)cc1	8.2 µM [rising, partial curve]	
CC1CCCC(C)N1/N=C/c1ccc(Cl)cc1 (stereo not given)	29.1 µM [rising, single point]	
CC(=O)N(C)N(C)c1cc(C)nc(N)n1	3.16 µM [rising, single point]	

SMILES	AC50 [1]	AC50 [2]
O=C(O)c1ccc(NCCc2ccc(Cl)cc2)c([N+](=O)[O-])c1	0.251 µM [falling, full curve, poor fit]	
CN1CCN(C(=O)c2cccn(Cc3ccc(C(F)(F)F)cc3)c2=O)CC1	3.16 µM [rising, single point]	
Cc1ccc(-c2cc(C(=O)N/N=C/c3ccccc3)n[nH]2)o1	1.58 µM [falling, full curve, poor fit]	
CNC(=O)c1cc(Nc2nnc(-c3ccc(C)c(S(N)(=O)=O)c3)c3ccccc23)ccc1OC	35.5 µM [falling, single point]	
Cc1nc(-c2ccccn2)nc(N2CCOCC2)c1Cl	11.2 µM [falling, single point]	
COc1cccc(C(=O)Nc2cccc(S(=O)(=O)NC3=NCCC3)c2)c1	6.51 µM [falling, partial curve, poor fit]	
O=C1C2C3C=CC(CC3)C2C(=O)N1/N=C/c1ccc(O)c(O)c1 (stereo not given)	8.2 µM [falling, partial curve]	
CCCCCCOC(=O)c1ccc(N)cc1	12.6 µM [rising, partial curve, poor fit]	
CCOc1ccc(N2C(=O)Nc3ccc(Br)cc3C2(O)C(=O)NC(C)C)cc1 (stereo not given)	10 µM [rising, partial curve]	
COc1cc(C(=O)NC(=S)Nc2ccc(NC(=O)c3ccco3)cc2)cc(OC)c1OC	18.4 µM [rising, partial curve, poor fit]	
Cc1ccc(NC2c3ncccc3C(=O)N2C2CCCCC2)cc1 (stereo not given)	11.2 µM [falling, single point]	
CC1(C)NC(=O)N(CC(O)Cn2c3ccccc3c3ccccc32)C1=O (stereo not given)	35.5 µM [falling, single point]	
CSc1nsc(SCC(=O)Nc2ccc(Br)cn2)n1	11.2 µM [falling, single point]	
COc1cccc(NC(=O)CN(C)C(=O)c2cc(-c3ccccc3)nn2-c2ccccc2)c1	6.51 µM [rising, partial curve, poor fit]	
CCOC(=O)C1(Cc2ccc(OC)cc2)CCN(C(=O)CCn2cccn2)CC1	35.5 µM [rising, single point]	
CCCCN(CC)CCCNC(=S)Nc1ccc2nc(N3CCN(CC)CC3)cc(C)c2c1	2.51 µM [falling, full curve, poor fit]	
CCC(=O)N1CCc2cc(Br)cc(S(=O)(=O)N3CCC(C(=O)NC(C)(C)C)CC3)c21	12.6 µM [rising, partial curve, poor fit]	
O=c1c2cc(NC(=S)N3CCCCC3)ccc2nc2n1CCCCC2	1.58 µM [rising, full curve]	
Cc1ccc(C(=O)c2coc3ccc(OCC(=O)O)cc23)cc1	14.6 µM [falling, single point]	
COc1cc(/C=N/NC(=O)CCC(=O)NCc2ccccc2)cc(OC)c1OC	14.6 µM [rising, partial curve, poor fit]	
Cc1ccc(-c2cc(C(=O)N/N=C/c3c[nH]c4ccccc34)n[nH]2)o1	14.6 µM [falling, single point]	

SMILES	AC50 [1]	AC50 [2]
COc1ccccc1OCC(=O)N/N=C/c1c(O)ccc2ccccc12	22.4 µM [falling, single point]	
COc1ccccc1NC(=O)CSc1nnnn1-c1ccc2c(c1)OCO2	20.6 µM [falling, single point]	
COc1ccc(CNC(=O)COc2ccccc2C(=O)c2cnn(-c3ccccc3)c2)cc1OC	29.1 µM [falling, single point]	
COc1ccc(OC)c(-c2nc(C(=O)NCC3CCCO3)cc3c2[nH]c2ccccc23)c1 (stereo not given)	1.58 µM [falling, partial curve, poor fit]	
COc1cccc(N2C(=O)C3CCCN3C2c2ccc(F)cc2)c1 (stereo not given)	3.98 µM [rising, single point]	
Cc1n[nH]c(C)c1CCc1nc2c3ccccc3nc(SCC(=O)Nc3ccccc3F)n2n1	20.6 µM [rising, single point]	
COc1ccc2c(c1)OC[C@H]1[C@@H]2N2C(=O)CNC(=O)[C@@]2(C)[C@H]1c1ccccc1	29.1 µM [rising, single point]	
COc1ccc(CCNC(=O)CN2CCC(C)CC2)cc1OC	3.26 µM [falling, single point]	
CCC(C)(C)NC(=O)c1cc(C(=O)OC)cc([N+](=O)[O-])c1	4.11 µM [falling, partial curve, poor fit]	
Cc1cc(-c2ccccc2)c2c3c(cn2n1)c(=O)n(C)c(=O)n3C	23.1 µM [falling, single point]	
COC(=O)CCC(=O)NC(=S)Nc1ccccc1F	5.62 µM [falling, partial curve, poor fit]	
COC(=O)C(NC(=O)c1ccc(F)cc1)(Nc1ncc(S(=O)(=O)c2ccc([N+](=O)[O-])cc2)s1)C(F)(F)F (stereo not given)	35.5 µM [falling, partial curve, poor fit]	
CCOc1ccc(NC(=O)Nc2cc(OCC(F)(F)F)cc(OCC(F)(F)F)c2)cc1	16.4 µM [falling, partial curve, poor fit]	
CCCCn1c(N)c(N(CCOC)C(=O)CSCc2ccc(C)cc2)c(=O)[nH]c1=O	3.66 µM [rising, partial curve, poor fit]	
OC(CNCCNc1ncccc1C(F)(F)F)Cn1ccc2ccccc21 (stereo not given)	12.6 µM [falling, single point]	
O=C1C2C(C(=O)N1CCc1ccccc1)C1C=CC2C12CC2 (stereo not given)	16.4 µM [rising, partial curve, poor fit]	
CCOC(=O)CN1CCc2c(C)nc3c(-c4ccc(OC)c(OC)c4)cnn3c21	29.1 µM [rising, partial curve, poor fit]	
COc1ccc(OCCCC(=O)NCCc2ccccc2)cc1	11.6 µM [rising, partial curve, poor fit]	
COCC(=O)N(C)C1(c2nnnn2CCOC(=O)Nc2cccc3ccccc23)CCCC1	3.66 µM [falling, partial curve, poor fit]	
NC(=S)n1[nH]c(-c2ccc([N+](=O)[O-])cc2)c(N=Nc2cccc(Cl)c2)c1=O	3.55 µM [rising, partial curve, poor fit]	3.55 µM [falling, full curve]
N=c1n(Cc2ccccc2Cl)c2ccccc2n1CC(O)c1ccco1 (stereo not given)	14.1 µM [falling, single point]	

4 records drawn at random from those above, as already listed:
SMILES	AC50 [1]	AC50 [2]
O=C1C2C(C(=O)N1CCc1ccccc1)C1C=CC2C12CC2 (stereo not given)	16.4 µM [rising, partial curve, poor fit]	
COC(=O)CCC(=O)NC(=S)Nc1ccccc1F	5.62 µM [falling, partial curve, poor fit]	
COc1ccc(CNC(=O)COc2ccccc2C(=O)c2cnn(-c3ccccc3)c2)cc1OC	29.1 µM [falling, single point]	
COc1ccc(OC)c(-c2nc(C(=O)NCC3CCCO3)cc3c2[nH]c2ccccc23)c1 (stereo not given)	1.58 µM [falling, partial curve, poor fit]	
